# Results taken from the supplement of paper PMC8728848.
# This is one part of the list.
# B1: Nc3LysM-2 (protein)
# chain: AHVLQARQSVSCDFATAANTGDTCASFAAAWGITEAAFAKLNPGVSCPGNLIAGSEYCVIGTVSTGAPTTTKAATTSTTPPTTTTTTKATTLSTSTTSVSPTGPSPQMPSITSTCNKFYQVQSGDGCWSIEQAQGVSASDFMAWNKAVDAQCDNLWLGYYVCVGVKGGSSPPPTTTTKPASSSAPTPQMPNTVSNCKKFHKVVSGDGCWAIEQAAGISASDFAKWNPYVDAACDNLWLGYYVCIGV
# Columns and labels:
# Experiment in all cases: glycan array binding signal (z-score within array); higher = stronger binding
# Settings in all cases: glycan notation: IUPAC condensed, linker removed
# [1] = target: Neu5Ac(a2-6)GlcNAc(b1-4)GlcNAc(b1-4)GlcNAc
# Method in brief: (§1)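 The Consortium for Functional Glycomics database supplied 3228 glycan arrays, of which those lacking an available protein sequence were dropped. The binding signal, a within-array Z-score, was averaged across arrays of the same protein sequence and across linkers. Negative scores can be read as non-binding.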
# Neu5Ac(a2-8)Neu5Ac = target: Neu5Ac(a2-8)Neu5Ac
# Method in brief: as §1
# [2] = target: Neu5Ac(a2-8)Neu5Ac(a2-3)Gal(b1-3)GalNAc(b1-4)[Neu5Ac(a2-3)]Gal(b1-4)Glc
# Method in brief: as §1
# [3] = target: Neu5Ac(a2-8)Neu5Ac(a2-3)Gal(b1-3)GalNAc(b1-4)[Neu5Ac(a2-8)Neu5Ac(a2-3)]Gal(b1-4)Glc
# Method in brief: as §1
# [4] = target: Neu5Ac(a2-8)Neu5Ac(a2-3)Gal(b1-4)Glc
# Method in brief: as §1
# [5] = target: Neu5Ac(a2-8)Neu5Ac(a2-3)Gal(b1-4)GlcNAc
# Method in brief: as §1
# [6] = target: Neu5Ac(a2-8)Neu5Ac(a2-3)[Gal(b1-3)GalNAc(b1-4)]Gal(b1-4)Glc
# Method in brief: as §1
# [7] = target: Neu5Ac(a2-8)Neu5Ac(a2-3)[GalNAc(b1-4)]Gal(b1-4)Glc
# Method in brief: as §1
# [8] = target: Neu5Ac(a2-8)Neu5Ac(a2-8)Neu5Ac
# Method in brief: as §1
# [9] = target: Neu5Ac(a2-8)Neu5Ac(a2-8)Neu5Ac(a2-3)Gal(b1-4)Glc
# Method in brief: as §1
# [10] = target: Neu5Ac(a2-8)Neu5Ac(a2-8)Neu5Ac(a2-3)[Gal(b1-3)GalNAc(b1-4)]Gal(b1-4)Glc
# Method in brief: as §1
# [11] = target: Neu5Ac(a2-8)Neu5Ac(a2-8)Neu5Ac(a2-3)[GalNAc(b1-4)]Gal(b1-4)Glc
# Method in brief: as §1
# [12] = target: Neu5Ac(a2-8)Neu5Ac(a2-8)Neu5Ac(a2-8)Neu5Ac(a2-3)[GalNAc(b1-4)]Gal(b1-4)Glc
# Method in brief: as §1
# [13] = target: Neu5Ac(a2-8)Neu5Gc(a2-3)Gal(b1-4)GlcNAc
# Method in brief: as §1
# [14] = target: Neu5Ac(b2-6)Gal(b1-4)GlcNAc
# Method in brief: as §1
# Neu5Ac(b2-6)GalNAc = target: Neu5Ac(b2-6)GalNAc
# Method in brief: as §1
# [15] = target: Neu5Ac9Ac(a2-3)Gal(b1-3)GlcNAc
# Method in brief: as §1
# [16] = target: Neu5Ac9Ac(a2-3)Gal(b1-4)GlcNAc
# Method in brief: as §1
# [17] = target: Neu5Ac9Ac(a2-6)Gal(b1-4)GlcNAc
# Method in brief: as §1
# [18] = target: Neu5Gc(a2-3)Gal(b1-3)GlcNAc
# Method in brief: as §1
# [19] = target: Neu5Gc(a2-3)Gal(b1-3)[Fuc(a1-4)]GlcNAc
# Method in brief: as §1
# Neu5Gc(a2-3)Gal(b1-4)Glc = target: Neu5Gc(a2-3)Gal(b1-4)Glc
# Method in brief: as §1
# [20] = target: Neu5Gc(a2-3)Gal(b1-4)GlcNAc
# Method in brief: as §1
# [21] = target: Neu5Gc(a2-3)Gal(b1-4)GlcNAc(b1-3)Gal(b1-4)GlcNAc(b1-2)Man(a1-3)[Neu5Gc(a2-3)Gal(b1-4)GlcNAc(b1-3)Gal(b1-4)GlcNAc(b1-2)Man(a1-6)]Man(b1-4)GlcNAc(b1-4)GlcNAc
# Method in brief: as §1
# [22] = target: Neu5Gc(a2-3)Gal(b1-4)[Fuc(a1-3)]GlcNAc
# Method in brief: as §1
# [23] = target: Neu5Gc(a2-6)Gal(b1-4)GlcNAc
# Method in brief: as §1
# Neu5Gc(a2-6)GalNAc = target: Neu5Gc(a2-6)GalNAc
# Method in brief: as §1
# [24] = target: Neu5Gc(a2-8)Neu5Ac(a2-3)Gal(b1-4)GlcNAc
# Method in brief: as §1
# [25] = target: Neu5Gc(a2-8)Neu5Gc(a2-3)Gal(b1-4)GlcNAc
# Method in brief: as §1
# [26] = target: Neu5Gc(a2-8)Neu5Gc(a2-3)Gal(b1-4)GlcNAc(b1-3)Gal(b1-4)GlcNAc
# Method in brief: as §1
# [27] = target: Neu5Gc(a2-8)Neu5Gc(a2-6)Gal(b1-4)GlcNAc
# Method in brief: as §1
# [28] = target: Neu5Gc(b2-6)Gal(b1-4)GlcNAc
# Method in brief: as §1
binder,measurement,setting,value
B1,glycan array binding signal (z-score),[1],-0.866
same,glycan array binding signal (z-score),Neu5Ac(a2-8)Neu5Ac,0.764
same,glycan array binding signal (z-score),[2],1.77
same,glycan array binding signal (z-score),[3],-0.682
same,glycan array binding signal (z-score),[4],0.832
same,glycan array binding signal (z-score),[5],0.005
same,glycan array binding signal (z-score),[6],-1.03
same,glycan array binding signal (z-score),[7],0.76
same,glycan array binding signal (z-score),[8],0.614
same,glycan array binding signal (z-score),[9],-1.22
same,glycan array binding signal (z-score),[10],-0.618
same,glycan array binding signal (z-score),[11],-1.15
same,glycan array binding signal (z-score),[12],0.938
same,glycan array binding signal (z-score),[13],-0.798
same,glycan array binding signal (z-score),[14],-1.26
same,glycan array binding signal (z-score),Neu5Ac(b2-6)GalNAc,0.072
same,glycan array binding signal (z-score),[15],-0.468
same,glycan array binding signal (z-score),[16],1.2
same,glycan array binding signal (z-score),[17],-0.103
same,glycan array binding signal (z-score),[18],0.959
same,glycan array binding signal (z-score),[19],-1.09
same,glycan array binding signal (z-score),Neu5Gc(a2-3)Gal(b1-4)Glc,-0.858
same,glycan array binding signal (z-score),[20],-0.122
same,glycan array binding signal (z-score),[21],-0.459
same,glycan array binding signal (z-score),[22],1.35
same,glycan array binding signal (z-score),[23],-1.12
same,glycan array binding signal (z-score),Neu5Gc(a2-6)GalNAc,0.729
same,glycan array binding signal (z-score),[24],-1.04
same,glycan array binding signal (z-score),[25],-0.807
same,glycan array binding signal (z-score),[26],0.232
same,glycan array binding signal (z-score),[27],-0.347
same,glycan array binding signal (z-score),[28],-0.199

# Two records drawn at random from those above, as already listed:
binder,measurement,setting,value
B1,glycan array binding signal (z-score),[18],0.959
same,glycan array binding signal (z-score),Neu5Ac(a2-8)Neu5Ac,0.764
